From patent EP1129354B1, “A METHOD FOR DETERMINING A MIMOTOPE SEQUENCE” (PEPSCAN SYSTEMS B.V., priority 1998, dated 2000)
At least one peptide structure holds a part that was inferred or is arguable (an end, a ring closure or a residue). Residues, ends and D or L forms follow the SMILES beside them.

Tested on: antibody
Assay: Pepscan ELISA, lengthening and replacement analyses (Example-3)
Type: binding
Conditions: at 10.0 µg/ml antibody
Source text: Lead peptides can also be derived from other type of libraries such as for example phage-display libraries.
In a replacement analysis the binding activity of complete series of substitutions analogs of lead peptides, in which each position is replaced by each of the other 19 natural L-amino acids, is investigated in detail. In addition, it is possible to use the 20 D-amino acids as well as other available non-natural amino acids. Substitutions that result in improved binding are combined into new sequences of building blocks. These new sequences are again tested in a 2nd replacement analysis. If necessary more rounds of replacement analyses are performed. After each round of a replacement analyses the antibody (or other soluble receptor) concentration can be lowered to obtain maximal binding activity (e.g. from 100 µg/ml to 0.01 µg/ml after 2 rounds of replacement-analyses, as shown in example-1).
Notes for the examples: • the 10 µg/ml, 1 µg/ml etc. denote the antibody concentration. • The line "improved position-01" etc. means that this change in amino acid (is underlined) improves binding activity in pepscan elisa at given antibody concentration. Positions that could not be improved are not mentioned (e.g. position-08 in first replacement-net of example-1, i.e. the original I at position 8 gives the highest activity).
In example-3, lead peptides were identified through phage-display. […]

C[C@@H](O)[C@H](NC(=O)[C@H](CC(=O)O)NC(=O)[C@@H](N)CO)C(=O)N[C@@H](CCCNC(=N)N)C(=O)N[C@@H](CCCCN)C(=O)NCC(=O)O [SDTRKG] (H-SDTRKG-OH)
activity: NO activity at 10.0 µg/ml
